Data as given in article PMC5703968.
No constants are given. Whether binding was seen depends on the method and setting. Binding seen in cells or lysates may run through a third protein. A yes stands for co-enrichment or nearness to the bait. Other partners may have been found.

Amino acid sequences for entries named in this document (tags omitted).
UniProt Q4QRB4: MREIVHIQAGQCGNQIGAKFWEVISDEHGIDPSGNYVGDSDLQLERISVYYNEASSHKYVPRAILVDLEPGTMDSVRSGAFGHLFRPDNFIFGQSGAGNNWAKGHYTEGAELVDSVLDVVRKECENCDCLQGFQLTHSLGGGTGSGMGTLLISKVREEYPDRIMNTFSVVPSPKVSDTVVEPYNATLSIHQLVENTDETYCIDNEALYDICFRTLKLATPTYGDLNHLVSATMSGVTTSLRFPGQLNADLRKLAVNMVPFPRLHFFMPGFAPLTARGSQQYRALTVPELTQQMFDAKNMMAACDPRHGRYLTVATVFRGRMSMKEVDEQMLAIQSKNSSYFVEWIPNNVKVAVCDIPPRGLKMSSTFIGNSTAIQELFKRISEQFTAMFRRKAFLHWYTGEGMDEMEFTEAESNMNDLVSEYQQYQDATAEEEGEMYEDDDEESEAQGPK
UniProt Q63544: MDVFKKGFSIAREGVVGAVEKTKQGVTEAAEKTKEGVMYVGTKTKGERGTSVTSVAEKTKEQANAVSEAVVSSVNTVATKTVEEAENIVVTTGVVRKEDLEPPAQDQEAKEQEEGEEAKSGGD

Target: βIII-tubulin (endogenous, rat femoral nerve) (rat (endogenous in femoral nerve)) (UniProt Q4QRB4)
Assay: affinity purification with mass spectrometry; biotinylated anti-βIII-tubulin antibody on streptavidin agarose; lysate of ligated rat femoral nerve (0.5 mg protein), BRB80, 2 h at 4 °C; eluate analysed by LC-MS/MS

γ-synuclein (endogenous, rat femoral nerve) (from UniProt Q63544 1-123)
binding: binds
